This note sets out measurements from patent US20190323037, “REPLICATIVE TRANSPOSON SYSTEM” (HORIZON DISCOVERY LIMITED, published 2019).

Assay in all cases: enzyme reaction in vitro
The subject of series [1] is T1, Helraiser nuclease-helicase HelR490-1486 (Myotis lucifugus).
T1 sequence: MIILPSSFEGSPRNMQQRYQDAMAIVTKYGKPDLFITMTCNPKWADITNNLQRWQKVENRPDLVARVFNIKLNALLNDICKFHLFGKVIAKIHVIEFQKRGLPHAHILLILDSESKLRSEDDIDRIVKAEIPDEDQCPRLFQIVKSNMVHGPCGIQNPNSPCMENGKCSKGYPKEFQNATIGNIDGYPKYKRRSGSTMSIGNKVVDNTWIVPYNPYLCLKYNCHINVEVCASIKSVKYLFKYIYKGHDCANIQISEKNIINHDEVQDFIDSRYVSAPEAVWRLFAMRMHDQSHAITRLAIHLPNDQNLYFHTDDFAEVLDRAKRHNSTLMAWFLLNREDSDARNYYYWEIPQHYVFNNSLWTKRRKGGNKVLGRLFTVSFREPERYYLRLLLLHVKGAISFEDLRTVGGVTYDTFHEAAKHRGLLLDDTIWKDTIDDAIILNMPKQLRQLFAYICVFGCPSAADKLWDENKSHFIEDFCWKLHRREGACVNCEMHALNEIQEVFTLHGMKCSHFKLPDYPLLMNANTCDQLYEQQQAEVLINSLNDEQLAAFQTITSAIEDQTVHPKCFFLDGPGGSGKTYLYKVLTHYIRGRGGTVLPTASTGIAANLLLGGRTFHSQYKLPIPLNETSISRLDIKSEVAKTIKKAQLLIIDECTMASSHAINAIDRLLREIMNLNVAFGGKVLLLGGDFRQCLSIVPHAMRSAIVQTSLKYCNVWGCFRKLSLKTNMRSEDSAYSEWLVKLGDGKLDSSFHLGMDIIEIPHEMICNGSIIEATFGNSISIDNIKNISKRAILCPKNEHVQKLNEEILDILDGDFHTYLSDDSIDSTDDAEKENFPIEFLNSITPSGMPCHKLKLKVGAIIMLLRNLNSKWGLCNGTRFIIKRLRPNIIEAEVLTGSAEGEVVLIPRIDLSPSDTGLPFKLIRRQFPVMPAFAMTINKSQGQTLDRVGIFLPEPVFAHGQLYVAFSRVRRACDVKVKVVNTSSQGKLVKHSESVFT
Particulars: no cleavage; purified recombinant protein; protein details: His tag, TEV-cleaved; label: 6-FAM; single-stranded DNA.

For series [2], the system named is T2, Helraiser transposase Y727F (Myotis lucifugus).
T2 sequence: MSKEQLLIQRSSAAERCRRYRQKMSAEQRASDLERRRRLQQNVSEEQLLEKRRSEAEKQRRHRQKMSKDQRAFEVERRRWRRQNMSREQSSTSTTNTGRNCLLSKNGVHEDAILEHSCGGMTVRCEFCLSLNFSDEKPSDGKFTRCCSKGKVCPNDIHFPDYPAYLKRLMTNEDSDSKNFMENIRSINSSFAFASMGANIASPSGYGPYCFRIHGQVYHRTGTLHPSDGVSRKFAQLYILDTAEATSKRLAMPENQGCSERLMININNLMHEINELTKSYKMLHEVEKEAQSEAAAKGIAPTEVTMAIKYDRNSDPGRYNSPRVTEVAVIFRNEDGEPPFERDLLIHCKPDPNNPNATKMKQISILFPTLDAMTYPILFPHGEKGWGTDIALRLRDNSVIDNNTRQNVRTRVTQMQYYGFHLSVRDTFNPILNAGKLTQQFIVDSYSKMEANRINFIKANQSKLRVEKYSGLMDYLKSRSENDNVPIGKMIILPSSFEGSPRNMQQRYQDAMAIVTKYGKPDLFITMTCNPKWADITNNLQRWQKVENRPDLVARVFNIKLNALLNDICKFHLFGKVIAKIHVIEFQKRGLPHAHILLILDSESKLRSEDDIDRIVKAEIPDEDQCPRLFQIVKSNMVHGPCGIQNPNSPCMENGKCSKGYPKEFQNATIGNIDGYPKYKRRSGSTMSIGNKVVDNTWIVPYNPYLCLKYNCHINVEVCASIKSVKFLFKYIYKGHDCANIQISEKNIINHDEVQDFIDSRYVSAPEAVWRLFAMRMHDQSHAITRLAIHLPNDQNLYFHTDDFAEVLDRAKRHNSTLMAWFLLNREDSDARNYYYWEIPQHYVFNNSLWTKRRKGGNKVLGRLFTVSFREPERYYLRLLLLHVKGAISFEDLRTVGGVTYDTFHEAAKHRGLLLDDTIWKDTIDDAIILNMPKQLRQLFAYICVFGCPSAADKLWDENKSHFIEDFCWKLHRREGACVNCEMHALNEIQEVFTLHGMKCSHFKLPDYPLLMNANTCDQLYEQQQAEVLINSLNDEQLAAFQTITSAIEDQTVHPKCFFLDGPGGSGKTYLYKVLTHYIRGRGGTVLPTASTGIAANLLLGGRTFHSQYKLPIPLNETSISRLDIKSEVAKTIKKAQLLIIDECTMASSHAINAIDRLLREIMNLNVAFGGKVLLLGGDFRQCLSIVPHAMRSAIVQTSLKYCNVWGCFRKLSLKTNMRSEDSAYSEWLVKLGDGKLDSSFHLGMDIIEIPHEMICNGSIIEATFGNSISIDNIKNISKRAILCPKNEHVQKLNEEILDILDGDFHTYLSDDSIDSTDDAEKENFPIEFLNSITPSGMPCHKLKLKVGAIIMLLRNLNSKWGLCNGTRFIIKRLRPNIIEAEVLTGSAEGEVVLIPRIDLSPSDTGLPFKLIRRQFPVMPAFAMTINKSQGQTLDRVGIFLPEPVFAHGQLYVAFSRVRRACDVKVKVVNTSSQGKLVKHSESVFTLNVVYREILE
To be noted: cleavage as wild type; purified recombinant protein; protein details: His tag, TEV-cleaved; label: 6-FAM; single-stranded DNA.

Series [3] deals with T3, Helraiser transposase (RepHel, Helitron) (Myotis lucifugus).
T3 sequence: T2 sequence with F727Y
To be noted: purified recombinant protein, protein details: His tag (pFastBac HT-A), TEV-cleaved, insect cells, label: 6-FAM, single-stranded DNA.

Series [4] deals with T4, Helraiser nuclease domain (printed HelR400-745) (Myotis lucifugus).
T4 sequence: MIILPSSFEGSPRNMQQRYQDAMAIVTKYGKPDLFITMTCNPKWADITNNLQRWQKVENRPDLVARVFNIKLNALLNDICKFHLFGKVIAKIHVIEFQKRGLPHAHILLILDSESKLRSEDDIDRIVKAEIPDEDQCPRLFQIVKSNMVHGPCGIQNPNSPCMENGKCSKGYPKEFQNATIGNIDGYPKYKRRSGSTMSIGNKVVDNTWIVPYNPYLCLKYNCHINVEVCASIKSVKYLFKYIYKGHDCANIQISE
To be noted: no cleavage; purified recombinant protein; protein details: His tag, TEV-cleaved; label: 6-FAM; single-stranded DNA.

Series [5] has as its system T5, Helraiser transposase K1068Q (Myotis lucifugus).
T5 sequence: T2 sequence with F727Y, K1068Q
To be noted: cleavage unaffected; purified recombinant protein; protein details: His tag, TEV-cleaved; label: 6-FAM; single-stranded DNA.

Substitutions are numbered along the chain they refer to. For part of these data: No signal at the amounts used counts as a negative. Protein sequences can lack the tags named with them.

“CACCATATGATCCTATATAATAAAAGAGAAACATGCAAATTGACCATCCC [Helraiser LTS substrate (+), top strand]”: the “activity on this sequence” value in series [1] is recorded as “not active”; in series [2] it was “active”; in series [3] (cleaved, Mn2+ more efficient than Mg2+, none without metal, dsDNA not cleaved), “active”; in series [4], “not active”; in series [5] it was “active”.
As for “CCCTTTCAATGTGCACGAATTTCGTGCACCGGGCCACTAGTATATATATA [Helraiser RTS substrate (+), top strand]”, in series [3] (cleaved precisely at transposon end), the “activity on this sequence” value is “active”.
